{"source": "the supplement of paper PMC3334620", "note": "In all, about 33,000 sequences were measured (“E-score (-0.5 to 0.5)”: median about -0.0034, highest 2% from about 0.25 on). This is one part of the list."}
{"target": "T1, Yap3 (UniProt P38749)", "T1 sequence": "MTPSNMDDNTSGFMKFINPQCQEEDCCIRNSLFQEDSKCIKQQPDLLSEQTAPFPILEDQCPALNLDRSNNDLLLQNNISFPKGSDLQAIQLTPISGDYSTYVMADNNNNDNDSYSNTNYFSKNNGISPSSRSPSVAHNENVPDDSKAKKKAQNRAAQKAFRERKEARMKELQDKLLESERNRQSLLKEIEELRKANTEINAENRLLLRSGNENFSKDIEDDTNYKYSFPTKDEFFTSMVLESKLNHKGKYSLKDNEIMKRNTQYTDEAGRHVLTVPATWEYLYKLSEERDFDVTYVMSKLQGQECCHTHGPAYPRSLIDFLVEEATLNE", "experiment": "PBM E-score (8-mer binding enrichment) (E-score (-0.5 to 0.5)); higher = stronger / more preferred TF binding", "conditions": "protein concentration: 100 nM; construct: GST-full length", "procedure,_shortened": "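Detection of bound protein used fluorescent anti-GST, with scans normalised by masliner. The proteins were GST-tagged yeast transcription factors applied at about 100-200 nM to universal all-10-mer Agilent arrays made double-stranded by primer extension. Each ungapped eight-base word, pooled with its reverse complement, was scored with an E-score from the Universal PBM Analysis Suite.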"}
{"sequence": "GACATCCA", "PBM E-score": -0.0886}
{"sequence": "GAGTTGGA", "PBM E-score": -0.00484}
{"sequence": "GAGGCAGC", "PBM E-score": -0.144}
{"sequence": "GCCAATCA", "PBM E-score": -0.169}
{"sequence": "CGGTGGTA", "PBM E-score": -0.0741}
{"sequence": "GTAGGTCA", "PBM E-score": -0.236}
{"sequence": "CGTGATAC", "PBM E-score": 0.00869}
{"sequence": "AATGCGGC", "PBM E-score": -0.00012}
{"sequence": "GGATCTCA", "PBM E-score": -0.109}
{"sequence": "GTATGGGA", "PBM E-score": -0.213}
{"sequence": "ATTTGACG", "PBM E-score": 0.138}
{"sequence": "GAACCCAA", "PBM E-score": -0.132}
{"sequence": "ATCAGATG", "PBM E-score": -0.0756}
{"sequence": "CCTCCCTC", "PBM E-score": -0.0218}
{"sequence": "GCAACTCC", "PBM E-score": -0.188}
{"sequence": "TAGTTCGA", "PBM E-score": 0.0925}
{"sequence": "AACGGGAT", "PBM E-score": -0.00343}
{"sequence": "CTATAAAC", "PBM E-score": 0.11}
{"sequence": "CTACGCCC", "PBM E-score": -0.185}
{"sequence": "CGTTTTAC", "PBM E-score": 0.0284}
{"sequence": "ACCCTTTG", "PBM E-score": -0.252}
{"sequence": "CCACCAGG", "PBM E-score": -0.334}
{"sequence": "AGTAGGGC", "PBM E-score": -0.0166}
{"sequence": "ATGGTAGG", "PBM E-score": -0.0663}
{"sequence": "ATTGTGCC", "PBM E-score": 0.0299}
{"sequence": "CAAAGTCG", "PBM E-score": 0.036}
{"sequence": "AGTGGTAG", "PBM E-score": -0.111}
{"sequence": "GCGCGAAC", "PBM E-score": 0.045}
{"sequence": "CTTAGGGC", "PBM E-score": -0.25}
{"sequence": "CAGTACGA", "PBM E-score": 0.158}
{"sequence": "CTAGATTA", "PBM E-score": 0.146}
{"sequence": "ACCGAAAC", "PBM E-score": 0.00664}
{"sequence": "TCCAACGA", "PBM E-score": -0.112}
{"sequence": "AAGTGCAC", "PBM E-score": 0.214}
{"sequence": "CCTGTCTC", "PBM E-score": -0.174}
{"sequence": "AATAATAC", "PBM E-score": 0.296}
{"sequence": "AGCCAGAG", "PBM E-score": -0.124}
{"sequence": "GACGTAGA", "PBM E-score": -0.266}
{"sequence": "CAATGTAG", "PBM E-score": -0.0631}
{"sequence": "AGGTCACC", "PBM E-score": -0.229}
{"sequence": "ACCCAGCT", "PBM E-score": -0.093}
{"sequence": "AGATCATG", "PBM E-score": 0.0443}
{"sequence": "ACGCCGGG", "PBM E-score": -0.242}
{"sequence": "AGTCATGA", "PBM E-score": 0.128}
{"sequence": "CTCCGTAC", "PBM E-score": 0.047}
{"sequence": "CGATAAAG", "PBM E-score": 0.0668}
{"sequence": "ACACGCTA", "PBM E-score": 0.0954}
{"sequence": "GCGACTTA", "PBM E-score": -0.116}
{"sequence": "ATTGATTA", "PBM E-score": 0.23}
{"sequence": "GTATAATA", "PBM E-score": 0.287}
{"sequence": "ATTAAATC", "PBM E-score": 0.211}
{"sequence": "ACGTCGCC", "PBM E-score": -0.105}
{"sequence": "ACCGGGGG", "PBM E-score": -0.374}
{"sequence": "GTCCTAAA", "PBM E-score": 0.0256}
{"sequence": "GTGAGTAA", "PBM E-score": 0.154}
{"sequence": "AGGGCATA", "PBM E-score": -0.0468}
{"sequence": "CGTGTTAC", "PBM E-score": 0.045}
{"sequence": "TACAGGCA", "PBM E-score": 0.00367}
{"sequence": "GTGTACAC", "PBM E-score": 0.0972}
{"sequence": "AATTGCAT", "PBM E-score": 0.0837}
{"sequence": "ATCCTCTG", "PBM E-score": -0.00518}
{"sequence": "CTAGATAA", "PBM E-score": 0.131}
{"sequence": "CCGCGCTA", "PBM E-score": 0.137}
{"sequence": "ACATCTGA", "PBM E-score": -0.171}
{"sequence": "ATATCAAT", "PBM E-score": 0.268}
{"sequence": "CGAAGTAA", "PBM E-score": 0.0985}
{"sequence": "ATGGCCCC", "PBM E-score": -0.384}
{"sequence": "GCGATACA", "PBM E-score": -0.0743}
{"sequence": "ACGTGTAT", "PBM E-score": 0.115}
{"sequence": "AACACTAG", "PBM E-score": 0.151}
{"sequence": "ATACGGCA", "PBM E-score": 0.0572}
{"sequence": "AGTAGGAT", "PBM E-score": -0.0021}
{"sequence": "AAATTTCC", "PBM E-score": 0.125}
{"sequence": "TTCCAAAA", "PBM E-score": 0.0119}
{"sequence": "CGCGGGTA", "PBM E-score": -0.0311}
{"sequence": "AACGACTG", "PBM E-score": 0.117}
{"sequence": "ATACTAGA", "PBM E-score": 0.177}
{"sequence": "CACCTACG", "PBM E-score": -0.0777}
{"sequence": "AGCTGCAT", "PBM E-score": -0.132}
{"sequence": "ATGAGTTA", "PBM E-score": -0.0603}
{"sequence": "AGGGATGA", "PBM E-score": -0.0984}
{"sequence": "CAGAATTA", "PBM E-score": -0.00899}
{"sequence": "CAGTGGCA", "PBM E-score": -0.142}
{"sequence": "GTTCCATA", "PBM E-score": 0.0853}
{"sequence": "ACAAATGT", "PBM E-score": 0.118}
{"sequence": "GAGGAAGA", "PBM E-score": 0.0109}
{"sequence": "CAGCAAGG", "PBM E-score": -0.0939}
{"sequence": "ATTCACTA", "PBM E-score": 0.104}
{"sequence": "GAGCGGAC", "PBM E-score": -0.287}
{"sequence": "TATATCGA", "PBM E-score": 0.241}
{"sequence": "GATGTGGC", "PBM E-score": -0.0842}
{"sequence": "CTCGCGTA", "PBM E-score": 0.0913}
{"sequence": "CCAGGACC", "PBM E-score": -0.166}
{"sequence": "GTGTACCA", "PBM E-score": 0.0474}
{"sequence": "ATAGGGTC", "PBM E-score": -0.096}
{"sequence": "AGGTAGAC", "PBM E-score": -0.0382}
{"sequence": "CGAAAGCA", "PBM E-score": 0.0948}
{"sequence": "CATTGTCA", "PBM E-score": 0.0809}
{"sequence": "GACTTCTC", "PBM E-score": -0.0144}
{"sequence": "TGCACCCA", "PBM E-score": 0.00496}
{"sequence": "ACCATTAC", "PBM E-score": 0.162}
{"sequence": "CCAACCCC", "PBM E-score": -0.179}
{"sequence": "CAACGTGG", "PBM E-score": -0.125}
{"sequence": "ATCCATGC", "PBM E-score": 0.0381}
{"sequence": "CCAACGTA", "PBM E-score": -0.0112}
{"sequence": "CCCTGAGA", "PBM E-score": -0.173}
{"sequence": "CGAGGCCC", "PBM E-score": -0.191}
{"sequence": "GGACAACC", "PBM E-score": -0.128}
{"sequence": "CTAACGAC", "PBM E-score": -0.0383}
{"sequence": "ACTGTGCC", "PBM E-score": -0.136}
{"sequence": "AAGATCCG", "PBM E-score": -0.178}
{"sequence": "GGTTTAGA", "PBM E-score": 0.0782}
{"sequence": "ATCTGGGG", "PBM E-score": -0.226}
{"sequence": "CGTAAGAC", "PBM E-score": 0.0141}
{"sequence": "GCGTCCCA", "PBM E-score": -0.121}
{"sequence": "AAAGCCCT", "PBM E-score": -0.254}
{"sequence": "TAGTATAA", "PBM E-score": 0.131}
{"sequence": "AACCTCCG", "PBM E-score": -0.132}
{"sequence": "TACGCAGA", "PBM E-score": 0.16}
{"sequence": "TGAAACAA", "PBM E-score": 0.106}
{"sequence": "ATCACCTC", "PBM E-score": 0.0289}
{"sequence": "GTAGGGGA", "PBM E-score": -0.251}
{"sequence": "ATGCCAAT", "PBM E-score": 0.0124}
{"sequence": "AGCGTCCC", "PBM E-score": -0.134}
{"sequence": "GAATAAAC", "PBM E-score": 0.104}
{"sequence": "ACGAGGAA", "PBM E-score": 0.136}
{"sequence": "GCGTGGTA", "PBM E-score": 0.0194}
{"sequence": "ACGCGACT", "PBM E-score": -0.121}
{"sequence": "GCAGACCA", "PBM E-score": -0.126}
{"sequence": "ATCTCGGG", "PBM E-score": -0.0623}
{"sequence": "GCACTTTA", "PBM E-score": 0.0421}
{"sequence": "ACGCGACA", "PBM E-score": 0.219}
{"sequence": "AAGCAGAG", "PBM E-score": 0.0381}
{"sequence": "ACTCCTGC", "PBM E-score": -0.0436}
{"sequence": "GTTTACCA", "PBM E-score": 0.107}
{"sequence": "ATCGATAG", "PBM E-score": 0.0603}
{"sequence": "CATCTTAG", "PBM E-score": 0.0578}
{"sequence": "ATGGTTAA", "PBM E-score": 0.0266}
{"sequence": "CTTGTTAC", "PBM E-score": 0.0269}
{"sequence": "ATGCGACC", "PBM E-score": 0.0864}
{"sequence": "CGACTACC", "PBM E-score": -0.172}
{"sequence": "GCATCCAA", "PBM E-score": -0.025}
{"sequence": "AAGGCCTT", "PBM E-score": -0.18}
{"sequence": "CAATACGG", "PBM E-score": -0.0587}
{"sequence": "CCGTCGCA", "PBM E-score": 0.0618}
{"sequence": "AATTTATA", "PBM E-score": 0.294}
{"sequence": "CATGAAGG", "PBM E-score": 0.0231}
{"sequence": "ACTAGCTC", "PBM E-score": 0.00178}
{"sequence": "CCGTCTCA", "PBM E-score": -0.0611}
{"sequence": "GCGCGTCA", "PBM E-score": 0.131}
{"sequence": "ATTGGAGG", "PBM E-score": -0.144}
{"sequence": "CATTCGGG", "PBM E-score": -0.11}
{"sequence": "AGCAAGTG", "PBM E-score": -0.0827}
{"sequence": "AGCTGATG", "PBM E-score": 0.161}
{"sequence": "CCGGACTC", "PBM E-score": -0.0808}
{"sequence": "CAGTGCGA", "PBM E-score": 0.0242}
{"sequence": "CCGAAGCC", "PBM E-score": -0.178}
{"sequence": "CAGGCTTC", "PBM E-score": 0.0437}
{"sequence": "CAGTACAG", "PBM E-score": 0.0469}
{"sequence": "GCCCAACA", "PBM E-score": -0.22}
{"sequence": "AATCCCCT", "PBM E-score": -0.187}
{"sequence": "AATTAGTC", "PBM E-score": 0.303}
{"sequence": "ACAGTAGA", "PBM E-score": 0.194}
{"sequence": "ATCCTAGA", "PBM E-score": 0.0306}
{"sequence": "AGGGTACG", "PBM E-score": -0.0661}
{"sequence": "ATAGTCGG", "PBM E-score": -0.197}
{"sequence": "GGCGCGGA", "PBM E-score": -0.172}
{"sequence": "AGTGTGAC", "PBM E-score": 0.0807}
{"sequence": "ACGTCCCC", "PBM E-score": -0.208}
{"sequence": "CAGTAGGG", "PBM E-score": -0.177}
{"sequence": "CGCGAGCC", "PBM E-score": -0.058}
{"sequence": "CCGGGGAA", "PBM E-score": -0.152}
